Experimental data as given in US20050250143A1.
These are yes or no findings as the source states them, for the method shown. Binding seen in cells or lysates may run through a third protein. Some binding calls cover weakened binding; strength is not graded here. Tags and fused reporters may be left off the sequences shown.

Sequences of proteins named here, by UniProt entry; tags and fusion partners are left off. A change or cut given only in a name is not applied to a line headed by its entry.
UniProt Q96EZ8: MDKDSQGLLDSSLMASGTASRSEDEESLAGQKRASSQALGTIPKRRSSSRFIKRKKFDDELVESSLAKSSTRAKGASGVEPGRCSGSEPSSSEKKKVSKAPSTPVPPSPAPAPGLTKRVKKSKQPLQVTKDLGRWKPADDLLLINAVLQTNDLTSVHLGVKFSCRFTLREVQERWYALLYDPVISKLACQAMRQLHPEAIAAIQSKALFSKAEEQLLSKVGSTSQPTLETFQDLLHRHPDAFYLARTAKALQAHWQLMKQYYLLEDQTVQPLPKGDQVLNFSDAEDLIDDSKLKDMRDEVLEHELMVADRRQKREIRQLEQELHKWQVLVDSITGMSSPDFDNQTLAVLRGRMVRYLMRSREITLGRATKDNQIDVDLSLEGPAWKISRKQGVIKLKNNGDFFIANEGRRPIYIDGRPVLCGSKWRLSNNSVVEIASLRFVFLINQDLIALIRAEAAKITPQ

Legend:
[1] = target: T1, GST-MEKK1 protein (plasmid pBCGST-MEKK1) (UniProt P53349); assay: GST pull-down on GSH-sepharose from CHOMIF1 #34 cells with or without 200 mM sorbitol, Western blot with anti-myc antibody
T1 sequence (looked up): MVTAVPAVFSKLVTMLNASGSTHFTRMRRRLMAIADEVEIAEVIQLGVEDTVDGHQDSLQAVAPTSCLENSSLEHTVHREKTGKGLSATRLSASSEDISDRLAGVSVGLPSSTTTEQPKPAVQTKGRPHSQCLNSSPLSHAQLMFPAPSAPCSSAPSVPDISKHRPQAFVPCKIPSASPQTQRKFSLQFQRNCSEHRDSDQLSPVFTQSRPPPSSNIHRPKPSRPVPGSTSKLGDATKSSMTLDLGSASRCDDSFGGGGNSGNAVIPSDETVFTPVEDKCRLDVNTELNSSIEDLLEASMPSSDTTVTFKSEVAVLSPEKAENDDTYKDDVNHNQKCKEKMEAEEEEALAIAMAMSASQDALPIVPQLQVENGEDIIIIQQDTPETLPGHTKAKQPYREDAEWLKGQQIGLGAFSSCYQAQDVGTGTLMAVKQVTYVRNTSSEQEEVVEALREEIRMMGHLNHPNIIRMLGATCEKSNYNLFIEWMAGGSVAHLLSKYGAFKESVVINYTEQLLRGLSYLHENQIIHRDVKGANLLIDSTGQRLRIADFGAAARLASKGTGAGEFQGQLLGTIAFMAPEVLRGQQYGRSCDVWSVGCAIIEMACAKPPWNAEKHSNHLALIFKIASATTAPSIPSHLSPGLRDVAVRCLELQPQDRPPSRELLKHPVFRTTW

[2] = target: T1, GST-MEKK1 protein (plasmid pBCGST-MEKK1); assay: GST pull-down on GSH-sepharose from CHOMIF1/MSP58#34 cells, Western blot with anti-myc antibody

Myc-tagged MIF1/MSP58 protein (plasmid pCM562), expressed in CHO stable clone #34 (from UniProt Q96EZ8 1-462)
binding [1]: binds | binding [2]: binds
